From article PMC5146860, “Succinate production positively correlates with the affinity of the global transcription factor Cra for its effector FBP in Escherichia coli” (Biotechnology for Biofuels, 2016)
Positions count from the first letter of the chain named. The exact form of at least one protein or probe is not confirmed. For some of these results: At least one verdict was read from the data and is not stated in words by the source. Protein sequences can lack the tags named with them.

Assays:
[1] = target: T1, Cra mutant Tang1688 (pET-CIII) N73Y,D148R,G274R (Escherichia coli AFP111) (UniProt P0ACP1); experiment: ITC; settings: 50 mM FBP, ITC: TAM III, 25 °C, desalted Cra (15 mM per legend), 1 mM DNA, buffer/pH not stated, recombinant protein, residues 1-334
T1 sequence (looked up): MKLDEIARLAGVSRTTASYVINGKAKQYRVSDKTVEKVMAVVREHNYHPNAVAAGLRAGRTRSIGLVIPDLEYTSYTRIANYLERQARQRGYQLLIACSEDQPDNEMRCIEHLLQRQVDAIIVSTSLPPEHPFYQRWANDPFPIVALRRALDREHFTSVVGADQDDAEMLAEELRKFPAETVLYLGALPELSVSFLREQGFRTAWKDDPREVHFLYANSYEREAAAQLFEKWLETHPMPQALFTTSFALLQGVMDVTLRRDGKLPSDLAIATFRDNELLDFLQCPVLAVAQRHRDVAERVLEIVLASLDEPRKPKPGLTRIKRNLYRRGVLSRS

[2] = target: T2, Cra wild-type (Tang1534) (Escherichia coli AFP111) (UniProt P0ACP1); experiment: ITC; settings: 50 mM FBP, ITC: TAM III, 25 °C, desalted Cra (15 mM per legend), 1 mM DNA, buffer/pH not stated, recombinant protein, residues 1-334
T2 sequence (looked up): T1 sequence (looked up) with Y73N, R148D, R274G

[3] = target: T3, Cra mutant Tang1683 (pET-CI) D101R,D148R,G274R (Escherichia coli AFP111) (UniProt P0ACP1); experiment: ITC; settings: 50 mM FBP, ITC: TAM III, 25 °C, desalted Cra (15 mM per legend), 1 mM DNA, buffer/pH not stated, recombinant protein, residues 1-334
T3 sequence (looked up): T1 sequence (looked up) with Y73N, D101R

[4] = target: T1, Cra mutant Tang1688 (pET-CIII) N73Y,D148R,G274R (Escherichia coli AFP111); experiment: EMSA; settings: EMSA: 1.5 uM DNA annealed in TE, DNA:Cra 1:0 to 1:10, +/-1 mM FBP, 15 min at 30 °C, 10% native PAGE, ethidium bromide, recombinant protein, residues 1-334
[5] = target: T2, Cra wild-type (Tang1534) (Escherichia coli AFP111); experiment: EMSA; settings: EMSA: 1.5 uM DNA annealed in TE, DNA:Cra 1:0 to 1:10, +/-1 mM FBP, 15 min at 30 °C, 10% native PAGE, recombinant protein, residues 1-334
[6] = target: T3, Cra mutant Tang1683 (pET-CI) D101R,D148R,G274R (Escherichia coli AFP111); experiment: EMSA; settings: EMSA: 1.5 uM DNA annealed in TE, DNA:Cra 1:0 to 1:10, +/-1 mM FBP, 15 min at 30 °C, 10% native PAGE, ethidium bromide, recombinant protein, residues 1-334
[7] = target: T4, Cra mutant Tang1684 (pET-CII) D148R,A248F,G274R (Escherichia coli AFP111) (UniProt P0ACP1); experiment: EMSA; settings: EMSA: 1.5 uM DNA annealed in TE, DNA:Cra 1:0 to 1:10, +/-1 mM FBP, 15 min at 30 °C, 10% native PAGE, ethidium bromide, recombinant protein, residues 1-334
T4 sequence (looked up): T1 sequence (looked up) with Y73N, A248F

[8] = 1 mM FBP, enhanced vs wild type
[9] = no FBP, binding rises with protein

TCGTTAAGCGATTCAGCA (double strand) [aceBp (aceB promoter 18-bp; acep in Fig. 8)]
Kd [1]: 410 nM | Kd [2]: 1100 nM | Kd [3]: 272 nM | binding result [4, 8]: binds | binding result [4, 9]: binds | binding result ([5]; 1 mM FBP, ethidium bromide): binds | binding result ([5]; no FBP, ethidium bromide): binds | binding result [6, 8]: binds | binding result [6, 9]: binds | binding result [7, 8]: binds | binding result [7, 9]: binds

TGGTGAATCGATACTTTA (double strand) [pckp (pck promoter 18-bp)]
Kd [1]: 171 nM | Kd [2]: 1120 nM | Kd [3]: 90.9 nM | binding result ([4]; 1 mM FBP, further enhanced): binds | binding result ([4]; no FBP, enhanced vs wild type): binds | binding result ([5]; 1 mM FBP, no significant change vs no FBP, ethidium …): binds | binding result ([5]; no FBP, ethidium bromide): binds | binding result ([6]; 1 mM FBP, further enhanced): binds | binding result ([6]; no FBP, enhanced vs wild type): binds | binding result ([7]; 1 mM FBP, further enhanced): binds | binding result ([7]; no FBP, enhanced vs wild type): binds
